Values are animals surviving of animals treated; these mice carried no tumour. Survivors were counted at the toxicity check, usually on the fifth day, unless a day is given; later deaths do not show. Schedules are NCI's codes, taken here to give the interval after Q, in days (D) or hours (H), and the number of doses after X.
Test system: B6D2F1 mice, nontumored toxicity test, survival
Experiment: NCI In Vivo Anticancer Drug Screen. Data for tumor model Nontumored Animals (Toxicity Test) in B6D2F1 (BDF1) mice
[1] = dose: 128.0 mg/kg/injection, schedule: Q01DX001 (oral), vehicle: saline
[2] = dose: 256.0 mg/kg/injection, schedule: Q01DX001 (oral), vehicle: saline
[3] = dose: 512.0 mg/kg/injection, schedule: Q01DX001 (oral), vehicle: saline
[4] = dose: 1024.0 mg/kg/injection, schedule: Q01DX001 (oral), vehicle: saline

N#C[C@@H]1C2C=CC(CC2)[C@H]1C#N
survivor count (dose: 2.4 mg/kg/injection, schedule: Q01DX009 (ip), vehicle: gum acacia): 10 of 10
survivor count (dose: 2.4 mg/kg/injection, schedule: Q03HX024 (ip), vehicle: gum acacia): 10 of 10
survivor count (dose: 3.6 mg/kg/injection, schedule: Q01DX009 (ip), vehicle: gum acacia): 9 of 10
survivor count (dose: 3.6 mg/kg/injection, schedule: Q03HX024 (ip), vehicle: gum acacia): 3 of 10
survivor count (dose: 5.4 mg/kg/injection, schedule: Q01DX009 (ip), vehicle: gum acacia): 0 of 10
survivor count (dose: 5.4 mg/kg/injection, schedule: Q03HX024 (ip), vehicle: gum acacia): 0 of 10
survivor count (dose: 8.0 mg/kg/injection, schedule: Q01DX009 (ip), vehicle: gum acacia): 0 of 10
survivor count (dose: 8.0 mg/kg/injection, schedule: Q03HX024 (ip), vehicle: gum acacia): 0 of 10
survivor count (dose: 12.0 mg/kg/injection, schedule: Q01DX009 (ip), vehicle: gum acacia): 0 of 10
survivor count (dose: 12.0 mg/kg/injection, schedule: Q03HX024 (ip), vehicle: gum acacia): 0 of 10
survivor count (dose: 24.0 mg/kg/injection, schedule: Q01DX001 (ip), vehicle: gum acacia): 0 of 10
survivor count (dose: 24.0 mg/kg/injection, schedule: Q04DX003 (ip), vehicle: gum acacia): 0 of 10
survivor count (dose: 36.0 mg/kg/injection, schedule: Q01DX001 (ip), vehicle: gum acacia): 0 of 10
survivor count (dose: 36.0 mg/kg/injection, schedule: Q04DX003 (ip), vehicle: gum acacia): 0 of 10
survivor count (dose: 54.0 mg/kg/injection, schedule: Q01DX001 (ip), vehicle: gum acacia): 0 of 10
survivor count (dose: 54.0 mg/kg/injection, schedule: Q04DX003 (ip), vehicle: gum acacia): 0 of 10
survivor count (dose: 80.0 mg/kg/injection, schedule: Q01DX001 (ip), vehicle: gum acacia): 0 of 10
survivor count (dose: 80.0 mg/kg/injection, schedule: Q04DX003 (ip), vehicle: gum acacia): 0 of 10
survivor count (dose: 120.0 mg/kg/injection, schedule: Q01DX001 (ip), vehicle: gum acacia): 0 of 10
survivor count (dose: 120.0 mg/kg/injection, schedule: Q04DX003 (ip), vehicle: gum acacia): 0 of 10

Nc1nc(=O)n(C2OC(CO)C(O)C2O)cc1F (configuration not stated)
survivor count (dose: 8.0 mg/kg/injection, schedule: Q01DX009 (oral), vehicle: saline): 8 of 8
survivor count (dose: 16.0 mg/kg/injection, schedule: Q01DX009 (oral), vehicle: saline): 8 of 8
survivor count (dose: 32.0 mg/kg/injection, schedule: Q01DX009 (oral), vehicle: saline): 8 of 8
survivor count (dose: 64.0 mg/kg/injection, schedule: Q01DX009 (oral), vehicle: saline): 8 of 8
survivor count [1]: 8 of 8
survivor count (dose: 128.0 mg/kg/injection, schedule: Q01DX009 (oral), vehicle: saline): 8 of 8
survivor count [2]: 8 of 8
survivor count [3]: 8 of 8
survivor count [4]: 8 of 8

O=NN(CCF)C(=O)NC1CCCCC1
survivor count (dose: 2.5 mg/kg/injection, schedule: Q01DX001 (ip), vehicle: saline + alcohol): 10 of 10
survivor count (dose: 5.1 mg/kg/injection, schedule: Q01DX001 (ip), vehicle: saline + alcohol): 10 of 10
survivor count (dose: 10.2 mg/kg/injection, schedule: Q01DX001 (ip), vehicle: saline + alcohol): 10 of 10
survivor count (dose: 20.4 mg/kg/injection, schedule: Q01DX001 (ip), vehicle: saline + alcohol): 10 of 10
survivor count (dose: 40.7 mg/kg/injection, schedule: Q01DX001 (ip), vehicle: saline + alcohol): 10 of 10
survivor count (dose: 81.4 mg/kg/injection, schedule: Q01DX001 (ip), vehicle: saline + alcohol): 10 of 10

CCC1=C(C[C@H]2NCCc3cc(OC)c(OC)cc32)C[C@H]2c3cc(OC)c(OC)cc3CCN2C1
survivor count (dose: 1.0 mg/kg/injection, schedule: Q03HX024 (ip), vehicle: saline): 8 of 8
survivor count (dose: 2.0 mg/kg/injection, schedule: Q03HX016 (ip), vehicle: saline): 8 of 8
survivor count (dose: 2.0 mg/kg/injection, schedule: Q03HX024 (ip), vehicle: saline): 8 of 8
survivor count (dose: 4.0 mg/kg/injection, schedule: Q01DX005 (ip), vehicle: saline): 8 of 8
survivor count (dose: 4.0 mg/kg/injection, schedule: Q01DX005 (sc), vehicle: saline): 8 of 8
survivor count (dose: 4.0 mg/kg/injection, schedule: Q01DX009 (ip), vehicle: saline): 8 of 8
survivor count (dose: 4.0 mg/kg/injection, schedule: Q03HX008 (ip), vehicle: saline): 7 of 8
survivor count (dose: 4.0 mg/kg/injection, schedule: Q03HX016 (ip), vehicle: saline): 7 of 8
survivor count (dose: 4.0 mg/kg/injection, schedule: Q03HX024 (ip), vehicle: saline): 7 of 8
survivor count (dose: 8.0 mg/kg/injection, schedule: Q01DX005 (ip), vehicle: saline): 8 of 8
survivor count (dose: 8.0 mg/kg/injection, schedule: Q01DX005 (oral), vehicle: saline): 8 of 8
survivor count (dose: 8.0 mg/kg/injection, schedule: Q01DX005 (sc), vehicle: saline): 8 of 8
survivor count (dose: 8.0 mg/kg/injection, schedule: Q01DX009 (ip), vehicle: saline): 8 of 8
survivor count (dose: 8.0 mg/kg/injection, schedule: Q03HX008 (ip), vehicle: saline): 0 of 8
survivor count (dose: 8.0 mg/kg/injection, schedule: Q03HX016 (ip), vehicle: saline): 0 of 8
survivor count (dose: 8.0 mg/kg/injection, schedule: Q03HX024 (ip), vehicle: saline): 0 of 8
survivor count (dose: 8.0 mg/kg/injection, schedule: Q04DX003 (ip), vehicle: saline): 8 of 8
survivor count (dose: 16.0 mg/kg/injection, schedule: Q01DX005 (ip), vehicle: saline): 8 of 8
survivor count (dose: 16.0 mg/kg/injection, schedule: Q01DX005 (oral), vehicle: saline): 8 of 8
survivor count (dose: 16.0 mg/kg/injection, schedule: Q01DX005 (sc), vehicle: saline): 8 of 8
survivor count (dose: 16.0 mg/kg/injection, schedule: Q01DX009 (ip), vehicle: saline): 8 of 8
survivor count (dose: 16.0 mg/kg/injection, schedule: Q03HX008 (ip), vehicle: saline): 0 of 8
survivor count (dose: 16.0 mg/kg/injection, schedule: Q03HX016 (ip), vehicle: saline): 0 of 8
survivor count (dose: 16.0 mg/kg/injection, schedule: Q03HX024 (ip), vehicle: saline): 0 of 8
survivor count (dose: 16.0 mg/kg/injection, schedule: Q04DX003 (ip), vehicle: saline): 8 of 8
survivor count (dose: 16.0 mg/kg/injection, schedule: Q08DX002 (ip), vehicle: saline): 8 of 8
survivor count (dose: 32.0 mg/kg/injection, schedule: Q01DX001 (ip), vehicle: saline): 8 of 8
survivor count (dose: 32.0 mg/kg/injection, schedule: Q01DX001 (sc), vehicle: saline): 7 of 8
survivor count (dose: 32.0 mg/kg/injection, schedule: Q01DX005 (ip), vehicle: saline): 0 of 8
survivor count (dose: 32.0 mg/kg/injection, schedule: Q01DX005 (oral), vehicle: saline): 2 of 8
survivor count (dose: 32.0 mg/kg/injection, schedule: Q01DX005 (sc), vehicle: saline): 3 of 8
survivor count (dose: 32.0 mg/kg/injection, schedule: Q01DX009 (ip), vehicle: saline): 0 of 8
survivor count (dose: 32.0 mg/kg/injection, schedule: Q03HX008 (ip), vehicle: saline): 0 of 8
survivor count (dose: 32.0 mg/kg/injection, schedule: Q03HX016 (ip), vehicle: saline): 0 of 8
survivor count (dose: 32.0 mg/kg/injection, schedule: Q04DX003 (ip), vehicle: saline): 8 of 8
survivor count (dose: 32.0 mg/kg/injection, schedule: Q08DX002 (ip), vehicle: saline): 8 of 8
survivor count (dose: 64.0 mg/kg/injection, schedule: Q01DX001 (ip), vehicle: saline): 4 of 8
survivor count (dose: 64.0 mg/kg/injection, schedule: Q01DX001 (oral), vehicle: saline): 4 of 8
survivor count (dose: 64.0 mg/kg/injection, schedule: Q01DX001 (sc), vehicle: saline): 2 of 8
survivor count (dose: 64.0 mg/kg/injection, schedule: Q01DX005 (ip), vehicle: saline): 0 of 8
survivor count (dose: 64.0 mg/kg/injection, schedule: Q01DX005 (oral), vehicle: saline): 0 of 8
survivor count (dose: 64.0 mg/kg/injection, schedule: Q01DX005 (sc), vehicle: saline): 0 of 8
survivor count (dose: 64.0 mg/kg/injection, schedule: Q04DX003 (ip), vehicle: saline): 2 of 8
survivor count (dose: 64.0 mg/kg/injection, schedule: Q08DX002 (ip), vehicle: saline): 2 of 8
survivor count (dose: 128.0 mg/kg/injection, schedule: Q01DX001 (ip), vehicle: saline): 0 of 8
survivor count [1]: 0 of 8
survivor count (dose: 128.0 mg/kg/injection, schedule: Q01DX001 (sc), vehicle: saline): 3 of 8
survivor count (dose: 128.0 mg/kg/injection, schedule: Q01DX005 (oral), vehicle: saline): 0 of 8
survivor count (dose: 128.0 mg/kg/injection, schedule: Q04DX003 (ip), vehicle: saline): 0 of 8
survivor count (dose: 128.0 mg/kg/injection, schedule: Q08DX002 (ip), vehicle: saline): 0 of 8
survivor count (dose: 256.0 mg/kg/injection, schedule: Q01DX001 (ip), vehicle: saline): 0 of 8
survivor count [2]: 0 of 8
survivor count (dose: 256.0 mg/kg/injection, schedule: Q01DX001 (sc), vehicle: saline): 1 of 8
survivor count (dose: 256.0 mg/kg/injection, schedule: Q08DX002 (ip), vehicle: saline): 0 of 8
survivor count [3]: 0 of 8
survivor count (dose: 512.0 mg/kg/injection, schedule: Q01DX001 (sc), vehicle: saline): 0 of 8
survivor count [4]: 0 of 8

— PubChem BioAssay AID186 (DTP/NCI, 2004)
